Experimental findings from PubChem BioAssay AID2685 (National Center for Advancing Translational Sciences (NCATS), 2010) are described below.

The list shows a part of the results. Further columns of the screen follow, without active or inactive calls. Compounds called inactive in the main read-out are mostly missing here. Potencies come from curve fits of mixed quality, noted in brackets.

The test in a line: qHTS Assay for Lipid Storage Modulators in Drosophila S3 Cells.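 On cell number change: cells counted by Cell Tracker Red CMTPX staining in the red channel.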 The following applies: BODIPY lipid droplet fluorescence, 18-24 h; for cell number change: measured here: cell count max response, cells fed with added oleic acid. In outline:
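Drosophila S3 cells got compounds at several concentrations plus oleic acid (400 uM solution). Laser-scanning cytometry with 488 nm excitation read lipid droplets at 500-530 nm and cells at 575-640 nm. Percent activity was relative to 20 uM Triacsin C.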
(In qHTS, concentration-response curves come from the screen itself.)

[1] abbreviates: measured here: lipid fluorescence (Fed channel) AC50, cells fed with added oleic acid.
The mark [2] stands for this setting: measured here: cell number channel AC50, cells fed with added oleic acid.

`CC(=O)C[C@@H](O)CC(=O)[C@H]1OC(=O)CC/C=C\Cc2ccccc21`: the cell number change is -11.1%. The half-maximal activity concentration (AC50) (in general, the midpoint of the concentration-response curve, whichever way the signal moves) under setting [1] was 0.00461 µM [rising, full curve, poor fit].
Regarding `COc1ccc(C(=O)Nc2ccc(S(=O)(=O)N3CCOCC3)cc2)cc1OC`, the cell number change is -8.33%. In addition, the AC50 under setting [1] is 3.66 µM [rising, partial curve].
With `Cn1nnc(C(O)CN2CCOCC2)n1` (stereo unspecified), the cell number change was -11.2%.
For the molecule `CC1CCN(C(=O)Cn2c3ccccc3c3nc4n(c(=O)c32)CCS4)CC1`, under setting [1], the concentration at half-maximal activity (AC50) is 5.17 µM [falling, full curve].
For `Cc1ccnc(Nc2nc(-c3ccc(Cl)cc3)cs2)c1`, the cell number change was 5.26%.
Same read-out and setting: for `Cc1ccc2nc3n(c(=O)c2c1)CCC3` the value was 15.5%.
On to `COc1ccc(N2CCN(C(=O)Cn3cnc4c(cnn4-c4ccccc4)c3=O)CC2)cc1`, for which the cell number change was determined as 104%. The AC50 under setting [2] was 20.6 µM [rising, partial curve, poor fit].
With `O=C(Nc1ccc(F)cc1)Nc1ccc(S(=O)(=O)N2CCCC2)cc1`, the cell number change was -36.5%. Further, the AC50 under setting [2] is 32.6 µM [falling, single point].
With `O=C(Nn1cnc2ccccc2c1=O)c1ccc([N+](=O)[O-])cc1Cl`, the concentration at half-maximal activity (AC50) is, setting by setting: under setting [2], 4.61 µM [rising, single point]; under setting [1], 5.17 µM [rising, single point].
In the case of `CC(C)(C)OC(=O)CNC(=O)c1[nH]cnc1C(=O)NCCCCCN`, the cell number change is -1.97%. Under setting [1], the AC50 is 4.11 µM [rising, full curve, poor fit].
As for `Cc1c(Cl)cccc1NS(=O)(=O)c1ccc2c(c1)C1C=CCC1C(c1ccc(C(=O)O)cc1)N2` (stereo unspecified), the cell number change was -20%. Also, the AC50 under setting [2] was 0.291 µM [falling, full curve, poor fit]. In addition, the AC50 under setting [1] is 11.6 µM [falling, partial curve].
Consider `CCOC(=O)C1=C(C)N=c2s/c(=C/c3cccc(OCC(=O)O)c3)c(=O)n2C1c1ccc(F)cc1` (stereo unspecified), for which the cell number change is -5.41%. Under setting [1], the half-maximal activity concentration (AC50) was 6.51 µM [falling, single point].
Turning to `COc1ccc([C@H]2[C@H](C(=O)OC(C)(C)C)N3N=Cc4ccccc4C3C23C(=O)c2ccccc2C3=O)cc1OC` (stereo partly specified), the cell number change was -15.9%. Also, the AC50 under setting [2] is 0.411 µM [rising, single point]. Further, under setting [1], the AC50 is 29.1 µM [falling, single point].
Consider `Cn1ccnc1SCC(=O)Nc1cccc([N+](=O)[O-])c1`, for which, under setting [1], the AC50 is 2.31 µM [falling, single point].
Regarding `COc1ccc(C/C(N)=N/OC(=O)CCc2ccccc2)cc1`, the cell number change was -29.5%.
For `CCOC(=O)N(NC(=O)C(O)(C(C)C)C(C)C)c1ccccc1`, the cell number change was -59.3%. Further, the AC50 under setting [2] was 29.1 µM [falling, partial curve, poor fit]. Besides, under setting [1], the AC50 was 20.6 µM [falling, partial curve, poor fit].
`Cc1ccc(NC(=O)c2sccc2C)cc1S(=O)(=O)N(C)C`: the cell number change worked out at 19.1%. Besides, the AC50 under setting [1] was 2.59 µM [rising, partial curve, poor fit].
Consider `Cc1cc(C(=O)N[C@@H](c2ccccc2)[C@]2(C)C[C@H]2[C@@H](C)C(=O)Nc2ccc3ccccc3c2)no1`, for which the cell number change was -48.4%. The AC50 under setting [2] was 11.6 µM [falling, partial curve]. In addition, the AC50 under setting [1] is 4.61 µM [falling, partial curve].
As for `CCCCn1c(N)c(N(CC(C)C)C(=O)C2CC(=O)N(Cc3ccccc3)C2)c(=O)[nH]c1=O` (stereo unspecified), the cell number change worked out at 25%.
The same measure, in the same setting: for `CCOC(=O)c1c(NC(=O)CSc2nnc(-c3ccc(C)cc3)o2)sc(C(C)=O)c1C` the value was -25.8%.
Consider `CCCC(=O)Nc1cccc(NC(=O)c2ccc3c(c2)OCCO3)c1`, for which the cell number change is -0.786%. The AC50 under setting [1] is 29.1 µM [rising, single point].
As to `CCN1CCN(Cc2ccc(NC(=O)c3cc(NC(=O)c4cnnc5ccccc45)cc(OC)c3)cc2C(F)(F)F)CC1`, the cell number change was found to be 22%. The half-maximal activity concentration (AC50) under setting [1] is 23.1 µM [rising, partial curve].
Regarding `Nc1c(N2CCCC2)cc(Cl)c2nonc12`, the cell number change is -19.1%. The AC50 under setting [1] is 0.00461 µM [falling, full curve, poor fit].
As to `O=C(NS(=O)(=O)c1ccccc1[N+](=O)[O-])c1ccccc1`, the cell number change amounted to 11.6%. Also, the AC50 under setting [1] is 16.4 µM [rising, single point].
With `N#CCSc1nnc2c(Cl)cc(Cl)cn12`, the cell number change is 27.6%. Also, the half-maximal activity concentration (AC50) under setting [2] is 0.82 µM [rising, full curve, poor fit].
In the case of `CC(C)(C)S(=O)(=O)c1nc2ccccc2s1`, the cell number change was -38.6%. Besides, the AC50 under setting [2] was 2.31 µM [falling, full curve, poor fit].
Consider `[NH-]c1ncnc2c1N=C[N+]2=CC=CCO`, for which the cell number change is 11.6%. Further, under setting [2], the AC50 was 0.00517 µM [rising, full curve, poor fit]. Besides, the AC50 under setting [1] is 1.84 µM [rising, partial curve, poor fit].
`Cc1c(C#N)c(N=CN(C)C)c(C(=O)c2ccc(Br)cc2)n1-c1ccc(Cl)cc1`: the cell number change came out at 128%. Under setting [2], the AC50 was 29.1 µM [rising, single point]. In addition, the AC50 under setting [1] is 0.58 µM [falling, single point].
On to `CCC(=O)Nc1cc(-c2nn(C)c(=O)c3ccccc23)ccc1N1CCOCC1`, for which the AC50 is, setting by setting: under setting [2], 2.91 µM [rising, single point]; under setting [1], 4.61 µM [rising, partial curve].
With `Cc1ccc(NC(=O)CCCC(=O)O)c(Br)c1`, the cell number change was -34.1%. Also, the AC50 under setting [2] was 6.51 µM [falling, partial curve]. The AC50 under setting [1] was 13 µM [falling, partial curve].
On to `Cc1cccc(C)c1NC(=O)CN1CCN(C(=O)C2CCC2)CC1`, for which the cell number change was found to be 26%.
`COc1ccc(/C=C/C(=O)NCCc2c[nH]c3ccccc23)cc1OC`: the cell number change was -42.8%. Besides, the concentration at half-maximal activity (AC50) under setting [2] is 9.2 µM [falling, single point]. For the same molecule, under setting [1], the AC50 is 9.2 µM [falling, single point].
`O=C(NCC1COc2ccccc2O1)c1ccc(NC(=O)c2ccco2)cc1` (stereo unspecified): the cell number change was -2.73%. The AC50 under setting [1] was 6.51 µM [rising, single point].
In the case of `O=C(O)c1cccc(NC(=S)N/N=C/c2cccnc2)c1`, the cell number change was -29.6%.
Take `CCOC(=O)Cn1c(=O)oc2cc(S(=O)(=O)NCC3CCCO3)ccc21` (stereo unspecified): the cell number change is -8.16%. The AC50 under setting [2] is 0.103 µM [falling, full curve, poor fit]. Moreover, the AC50 under setting [1] was 0.651 µM [falling, single point].
On to `CCOC(=O)Cc1csc(NC(=O)c2cccs2)n1`, for which the cell number change was 3.89%. Besides, the AC50 under setting [1] is 2.59 µM [rising, full curve].
As to `CN(CC(=O)Nc1cccc(F)c1)C(=O)c1cn(-c2ccccc2)nc1-c1ccc(F)cc1`, the cell number change turned out to be 0.407%.
Consider `Cc1ccc2nc(SCc3nc4ccccc4c(=O)[nH]3)[nH]c2c1`, for which the cell number change came out at 23.7%. For the same molecule, the AC50 under setting [1] was 0.0116 µM [rising, full curve, poor fit].
`Cc1ccc([N+](=O)[O-])c2c1C(N1CCCC1)C(C)(C)O2` (stereo unspecified): the cell number change is 68.3%. Besides, the AC50 under setting [1] was 5.17 µM [rising, full curve, poor fit].
In the case of `Cc1ccccc1NC(=O)c1ccc2c(c1)C(=O)N(CCC(C)C)C2=O`, the cell number change was 103%. The AC50 under setting [2] was 6.51 µM [rising, partial curve]. In addition, the AC50 under setting [1] was 18.4 µM [rising, partial curve].
Regarding `Cc1nc2c(=O)oc3ccccc3c2n1-c1ccccc1`, under setting [1], the AC50 was 3.66 µM [rising, partial curve, poor fit].
Take `Cc1c(NC(=O)CSc2nnnn2-c2ccc(F)cc2)c(=O)n(-c2ccccc2)n1C`: the cell number change was 0.281%.
On to `CN1CCNC(=O)C1CC(=O)NCCc1ccccc1F` (stereo unspecified), for which the cell number change was -24.1%. The AC50 under setting [1] is 25.9 µM [falling, partial curve, poor fit].
For the molecule `CC1CC(C)(C)NC(=S)N1CCC(=O)N1CCN(Cc2ccccc2)CC1` (stereo unspecified), the cell number change is -69.6%. For the same molecule, under setting [2], the AC50 is 0.326 µM [falling, partial curve, poor fit]. Besides, under setting [1], the AC50 was 23.1 µM [falling, partial curve, poor fit].
Turning to `Fc1ccc(-n2c(-c3ccc4c(c3)OCO4)n[nH]c2=S)cc1Cl`, the cell number change was 1.99%. Moreover, the AC50 under setting [1] is 0.517 µM [rising, partial curve, poor fit].
For the molecule `CC(=O)Nc1nc(C)c(-c2csc(Nc3cccc(C(C)=O)c3)n2)s1`, the cell number change was -20.3%. For the same molecule, the AC50 under setting [1] is 29.1 µM [falling, single point].
As to `CC(OC(=O)[C@H](C)NC(=O)c1ccccc1Cl)C(=O)NCc1ccc2c(c1)OCO2` (stereo partly specified), the cell number change amounted to 9.5%.
On to `COc1cc(NS(=O)(=O)c2ccc3c(c2)n(C)c(=O)n3C)cc(OC)c1`, for which the cell number change came to 53.7%. Further, the AC50 under setting [2] is 2.59 µM [rising, partial curve].
For `COc1ccc(-n2c(-c3ccc(Br)cc3)c[n+]3c2SC(C)C3)cc1` (stereo unspecified), the cell number change is -35.7%. Moreover, the AC50 under setting [2] was 29.1 µM [falling, single point]. Moreover, the AC50 under setting [1] is 1.84 µM [falling, full curve, poor fit].
For `CC1CC(C)(C)NC(=S)N1CC(=O)N1CCN(Cc2ccccc2)CC1` (stereo unspecified), the cell number change is -95.3%.
Turning to `C/C(=C/c1ccccc1)C(=O)N1CCN(c2ccc(F)cc2)CC1`, the cell number change was 19.6%. For the same molecule, the AC50 under setting [1] is 29.1 µM [rising, single point].
On to `Clc1ccc(CO/N=C/c2c(-c3ccccc3)nc3n2CCS3)c(Cl)c1`, for which the cell number change was 24.3%. Further, under setting [1], the AC50 is 23.1 µM [rising, single point].
As to `Cc1nonc1NC(=O)CSc1nc(C23CC4CC(CC(C4)C2)C3)nc2ccccc12`, the cell number change is 22.2%. For the same molecule, under setting [1], the AC50 is 29.1 µM [rising, single point].
For `CN(C(=O)c1ccccc1Cl)c1ccccc1C(=O)NCCc1ccccc1`, the AC50 is, setting by setting: under setting [2], 2.59 µM [falling, partial curve]; under setting [1], 29.1 µM [falling, single point].
For `CC1CN(S(=O)(=O)c2ccc(Cl)c(C(F)(F)F)c2)CC(C)O1` (stereo unspecified), under setting [1], the AC50 was 0.058 µM [falling, full curve, poor fit].
For the molecule `Fc1ccc(CSc2nc3ccccc3[nH]2)c2ccccc12`, the cell number change came out at 11.4%. Also, the AC50 under setting [1] was 11.6 µM [rising, partial curve].
Consider `O[C@@H](c1cc(C(F)(F)F)nc2c(C(F)(F)F)cccc12)[C@H]1CCCCN1`, for which the cell number change was -35.7%. In addition, the AC50 under setting [2] is 16.4 µM [falling, partial curve, poor fit]. Besides, the AC50 under setting [1] is 13 µM [falling, partial curve].
